According to US20040265323A1, “Compositions comprising pathogen elicited epithelial chemoattractant (eicosanoid hepoxilin A3), inhibitors thereof and methods of use thereof” (priority 2003, published 2004):
Some results were stated once for a whole list of compounds, not compound by compound.

Test system: PEEC/hepoxilin A3 secretion
Assay: Apical PEEC/hepoxilin A3 release from S. typhimurium infected T84 cell monolayers
Format: cell-based, human
Conditions: 50 μM, pathogen-induced
Source text: T84 cell monolayers were infected with S. typhimurium in the absence or presence of the 12-LO enzyme inhibitor and apical supernatants were examined for PEEC bioactivity. […] Moreover, since it had been previously shown that S. typhimurium via its effector SipA initiates an ARF6-dependent lipid-signaling cascade that directs the activation of PKC and release of PEEC, it was further examined if blocking PKC activity (which would occur upstream of 12-LO) also corresponds with a reduction in hepoxilin A3 bioactivity and release, as one would predict.

SMILES: CCCN(CCC)S(=O)(=O)c1ccc(C(=O)O)cc1 [probenecid]
- inhibition of hepoxilin A3 secreted: more than 50%
